The series is described as follows: Titration with zinc ions monitored by ultraviolet and visible absorption spectra. It counts as binding. As for the experimental part: TQEN was titrated with zinc ions, and changes of ultraviolet and visible absorption spectra were monitored.
In the same manner as in Test Example 3, solution of 6OMeTQEN (concentration of 6OMeTQEN: 34 μM) in water-containing DMF (DMF:water=1:1) was titrated with zinc ions (0 to 68 μM), and changes in absorption were monitored by measuring ultraviolet and visible absorption spectra (FIG. 8).

As for `c1ccc2nc(CN(CCN(Cc3ccc4ccccc4n3)Cc3ccc4ccccc4n3)Cc3ccc4ccccc4n3)ccc2c1` [TQEN, N,N,N′,N′-tetrakis(2-quinolylmethyl)ethylenediamine], the “equivalents of zinc ions at which changes of absorption stopped” value (UV-visible absorption, isosbestic point) stood at 1 equivalent. In addition, under “competition experiment”, the “change of absorption spectra by former class of ions (sodium, potassium and the like)” value is given as “no change”; the “change of absorption spectra by latter class of ions (copper, cobalt and the like)” value was “same spectral changes as those induced by zinc”.

Source of the values: patent US7541467B2, “Fluorescent zinc ion sensor” (Sekisui Medical Co., Ltd., priority 2004, dated 2009).
